Results are given in words; binding and its absence hold for the method and conditions named. In cells and extracts the contact can be indirect. Here binding means that the protein was enriched with, or labelled near, the bait; the list need not be complete. Sequences can lack the tags named with a protein.

Sequences of proteins named here, by UniProt entry; tags and fusion partners are left off. Residues count along the entry.
UniProt Q7X9V3, residues 59-258: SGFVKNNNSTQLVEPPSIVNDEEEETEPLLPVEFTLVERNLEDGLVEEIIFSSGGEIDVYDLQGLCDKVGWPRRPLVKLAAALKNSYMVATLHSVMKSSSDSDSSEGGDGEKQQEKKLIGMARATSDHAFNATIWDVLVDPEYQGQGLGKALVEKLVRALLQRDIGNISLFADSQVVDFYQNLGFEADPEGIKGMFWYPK
UniProt P17745, residues 68-476: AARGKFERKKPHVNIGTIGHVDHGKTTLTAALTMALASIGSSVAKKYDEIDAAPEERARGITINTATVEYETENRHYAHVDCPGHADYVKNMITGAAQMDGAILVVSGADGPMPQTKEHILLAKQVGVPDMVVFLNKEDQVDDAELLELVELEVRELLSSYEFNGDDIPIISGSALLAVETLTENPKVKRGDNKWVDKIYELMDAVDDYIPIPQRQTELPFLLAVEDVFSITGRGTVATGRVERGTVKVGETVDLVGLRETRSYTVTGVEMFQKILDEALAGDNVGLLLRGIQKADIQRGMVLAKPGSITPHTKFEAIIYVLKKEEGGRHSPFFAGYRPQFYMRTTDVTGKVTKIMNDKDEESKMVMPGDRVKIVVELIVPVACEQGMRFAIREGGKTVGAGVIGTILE

The target in one assay is T1, GNAT3-GFP (Arabidopsis thaliana) (UniProt Q940H2).
T1 sequence: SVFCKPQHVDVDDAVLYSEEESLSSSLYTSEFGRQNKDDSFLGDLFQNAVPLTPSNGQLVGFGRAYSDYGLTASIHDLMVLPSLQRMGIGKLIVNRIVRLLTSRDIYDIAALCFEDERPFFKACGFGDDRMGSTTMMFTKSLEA
The assay is described as follows: affinity purification with mass spectrometry; GFP-Trap A beads with 2 mg leaf protein of GNAT1-, GNAT2- or GNAT3-GFP overexpressing Arabidopsis lines, 2 h at 4 °C; extraction buffer 50 mM HEPES-KOH pH 7.5, 150 mM NaCl, 10% glycerol, 2 mM EDTA, 5 mM DTT, 0.5% Triton X-100; label-free quantification against a chloroplast-targeted GFP control line; four biological replicates.
For “GNAT2 (from UniProt Q7X9V3 59-258) (enzyme)”, the binding entry is given as “binds”.

The target in a further assay is T2, GNAT1-GFP (Arabidopsis thaliana) (UniProt Q9C666).
T2 sequence: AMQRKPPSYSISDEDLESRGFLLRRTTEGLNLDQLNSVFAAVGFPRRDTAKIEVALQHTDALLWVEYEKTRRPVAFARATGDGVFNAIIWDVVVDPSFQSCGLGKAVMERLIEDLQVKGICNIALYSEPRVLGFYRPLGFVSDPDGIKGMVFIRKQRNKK
Described as above.
Turning to CPN60A, the binding result is “binds”.
Same read-out and setting: to FNRL belongs “binds”; to FTSZ2-1, “binds”; to FTSZ2-2, “binds”.
Still for that read-out and setting: the result for “GNAT2 (from UniProt Q7X9V3 59-258) (enzyme)” reads “binds”; that for PTAC17, “binds”.
The same measure, in the same setting: the result for RABE1b (from UniProt P17745 68-476) reads “binds”.
Take “Translocon at the outer Envelope Membrane of Chloroplasts 75-III”: the binding entry is given as “binds”.

The values above are taken from PMC11585782, “The Plastidial Protein Acetyltransferase GNAT1 Forms a Complex With GNAT2, yet Their Interaction Is Dispensable for State Transitions” (Molecular & Cellular Proteomics : MCP, 2024).
